Values from PubChem BioAssay AID1259254 (NCATS, 2017).
This is a random part of about 59,000 reagents. Of all reagents, about 1,550 (2.6%) are marked active. 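G2 share is only a proxy for re-replication; each gene was hit by three separate siRNAs, and active genes were retested.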 The numbers tell different reagents against one gene apart. Further read-outs or replicates are left out here. Not stated in the record: the amount of reagent.

Screen: 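Finding genes that stop cells copying their DNA twice in one cycle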 (primary screen)
Cell system: human HCT116 colorectal cancer cells
Reagents: single siRNA against human genes
Duration: 3 days
Read-out: 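Imaged Hoechst DNA stain sorts each cell into a cycle phase by DNA amount; per plate, G2 fraction set to 0% for non-targeting and 100% for GMNN siRNA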
Reading the numbers: G2 robust z-score and G2 cells, % of GMNN control: higher = more G2 cells, more excess DNA replication
Call rule: 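An siRNA counts as active if its G2 robust z-score lies at least 5 MADs above the screen median; here such calls match roughly 38% of GMNN control or more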

RBMX2 (RNA binding motif protein X-linked 2) #1 → G2 robust z-score = 0.233; G2 cells, % of GMNN control = 4.61; activity call = inactive
RBMX2 (RNA binding motif protein X-linked 2) #2 → G2 robust z-score = -0.764; G2 cells, % of GMNN control = -2.41; activity call = inactive
RBMX2 (RNA binding motif protein X-linked 2) #3 → G2 robust z-score = -1.35; G2 cells, % of GMNN control = -6.55; activity call = inactive
MESP2 (mesoderm posterior bHLH transcription factor 2) #1 → G2 robust z-score = -0.544; G2 cells, % of GMNN control = -0.862; activity call = inactive
MESP2 (mesoderm posterior bHLH transcription factor 2) #2 → G2 robust z-score = 0.385; G2 cells, % of GMNN control = 5.67; activity call = inactive
MESP2 (mesoderm posterior bHLH transcription factor 2) #3 → G2 robust z-score = -0.925; G2 cells, % of GMNN control = -3.54; activity call = inactive

The list goes on; the last 2 above are carried over.
MESP2 (mesoderm posterior bHLH transcription factor 2) #2 → G2 robust z-score = 0.385; G2 cells, % of GMNN control = 5.67; activity call = inactive
MESP2 (mesoderm posterior bHLH transcription factor 2) #3 → G2 robust z-score = -0.925; G2 cells, % of GMNN control = -3.54; activity call = inactive
NDFIP2 (Nedd4 family interacting protein 2) #1 → G2 robust z-score = 1.49; G2 cells, % of GMNN control = 13.5; activity call = inactive
NDFIP2 (Nedd4 family interacting protein 2) #2 → G2 robust z-score = 0.379; G2 cells, % of GMNN control = 5.64; activity call = inactive
NDFIP2 (Nedd4 family interacting protein 2) #3 → G2 robust z-score = -0.379; G2 cells, % of GMNN control = 0.298; activity call = inactive
PAF1 (PAF1 component of Paf1/RNA polymerase II complex) #1 → G2 robust z-score = -0.127; G2 cells, % of GMNN control = 2.07; activity call = inactive
PAF1 (PAF1 component of Paf1/RNA polymerase II complex) #2 → G2 robust z-score = -0.478; G2 cells, % of GMNN control = -0.395; activity call = inactive
PAF1 (PAF1 component of Paf1/RNA polymerase II complex) #3 → G2 robust z-score = -0.507; G2 cells, % of GMNN control = -0.601; activity call = inactive
